Where a chain is given by its changes, count along the chain named. For at least one entry, the source does not settle the construct or the ends of the probe. At least one verdict was read from the data and is not stated in words by the source. Protein sequences can lack the tags named with them.
Legend:
Assay in all cases: EMSA
ZCCHC4 F48A (human) = target: T1, ZCCHC4 F48A (human) (UniProt Q9H5U6); conditions: 0.3 uM protein, 0.6 uM RNA; EMSA: 20 mM Tris-HCl pH 7.5, 100 mM NaCl, 5% glycerol, 1 mM DTT, 4 C, 1 h; 0.3 uM RNA with 0-1.2 uM protein unless noted; 6% TBE native gel; recombinant protein; residues 24-513; protein details: His6-SUMO removed by ULP1; label: none (SYBR Gold stain)
T1 sequence (looked up): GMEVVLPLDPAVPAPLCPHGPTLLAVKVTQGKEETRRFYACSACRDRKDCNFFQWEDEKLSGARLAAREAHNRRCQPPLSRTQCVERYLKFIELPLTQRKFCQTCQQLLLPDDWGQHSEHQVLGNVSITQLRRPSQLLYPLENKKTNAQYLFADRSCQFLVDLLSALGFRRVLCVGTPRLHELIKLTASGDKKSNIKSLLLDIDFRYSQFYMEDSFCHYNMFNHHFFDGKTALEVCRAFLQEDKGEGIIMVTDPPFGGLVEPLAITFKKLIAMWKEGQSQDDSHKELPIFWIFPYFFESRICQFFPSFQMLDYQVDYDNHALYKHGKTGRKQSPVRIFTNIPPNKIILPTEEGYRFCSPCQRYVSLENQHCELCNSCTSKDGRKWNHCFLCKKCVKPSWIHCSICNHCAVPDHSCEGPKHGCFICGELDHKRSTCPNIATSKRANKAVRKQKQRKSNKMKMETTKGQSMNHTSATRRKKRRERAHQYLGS

ZCCHC4 N342A (human) = target: T2, ZCCHC4 N342A (human) (UniProt Q9H5U6); conditions: EMSA: 20 mM Tris-HCl pH 7.5, 100 mM NaCl, 5% glycerol, 1 mM DTT, 4 C, 1 h; 0.3 uM RNA with 0-1.2 uM protein unless noted; 6% TBE native gel; recombinant …; residues 24-513; protein details: His6-SUMO removed by ULP1; label: none (SYBR Gold stain)
T2 sequence (looked up): T1 sequence (looked up) with A25F, N319A

ZCCHC4 R323A (human) = target: T3, ZCCHC4 R323A (human) (UniProt Q9H5U6); conditions: 0.3 uM protein, 0.6 uM RNA; EMSA: 20 mM Tris-HCl pH 7.5, 100 mM NaCl, 5% glycerol, 1 mM DTT, 4 C, 1 h; 0.3 uM RNA with 0-1.2 uM protein unless noted; 6% TBE native gel; recombinant protein; residues 24-513; protein details: His6-SUMO removed by ULP1; label: none (SYBR Gold stain)
T3 sequence (looked up): T1 sequence (looked up) with A25F, R300A

ZCCHC4 W78A (human) = target: T4, ZCCHC4 W78A (human) (UniProt Q9H5U6); conditions: 0.3 uM protein, 0.6 uM RNA; EMSA: 20 mM Tris-HCl pH 7.5, 100 mM NaCl, 5% glycerol, 1 mM DTT, 4 C, 1 h; 0.3 uM RNA with 0-1.2 uM protein unless noted; 6% TBE native gel; recombinant protein; residues 24-513; protein details: His6-SUMO removed by ULP1; label: none (SYBR Gold stain)
T4 sequence (looked up): T1 sequence (looked up) with A25F, W55A

ZCCHC4 Y173A (human) = target: T5, ZCCHC4 Y173A (human) (UniProt Q9H5U6); conditions: 0.3 uM protein, 0.6 uM RNA; EMSA: 20 mM Tris-HCl pH 7.5, 100 mM NaCl, 5% glycerol, 1 mM DTT, 4 C, 1 h; 0.3 uM RNA with 0-1.2 uM protein unless noted; 6% TBE native gel; recombinant protein; residues 24-513; protein details: His6-SUMO removed by ULP1; label: none (SYBR Gold stain)
T5 sequence (looked up): T1 sequence (looked up) with A25F, Y150A

Measured: binding result

CGGUACACCUGUCAAACGGUAACGCAGGUG [30-mer 28S rRNA]
binds: all assays above
